Source: the supplement of paper PMC11542785
Counter-ions that a name gives are not always drawn. The list shows a part of the results. Single values are uncertain, as repeats are few or missing.

Tested on: Drosophila melanogaster DPAGT1 (Alg7) RNAi eye model
Assay: eye size Z-score vs DMSO-treated DPAGT1 model flies; higher = larger eye (suppression of DPAGT1 phenotype)
Conditions: 5 uM

Structure (SMILES) | eye size Z-score | eye size Z-score (female)
O=C1C(CC[S+]([O-])c2ccccc2)C(=O)N(c2ccccc2)N1c1ccccc1 (stereo not given) [Sulfinpyrazone] | -0.55 | 
CC(=O)Oc1cc(C(F)(F)F)ccc1C(=O)O [Triflusal] | 1.74 | 
N=c1ccn2c(n1)O[C@H]1[C@H](O)[C@@H](CO)O[C@H]12 [Ancitabine hydrochloride] | 1.16 | 
CC(=O)Oc1c(C)cccc1C(=O)O [Cresopirine] | 0.36 | 
C[C@]12C=CC(=O)C=C1CC[C@@H]1[C@@H]2[C@@H](O)C[C@@]2(C)[C@H]1CC[C@]2(O)C(=O)CO [Prednisolone] | -0.08 | 
O=c1[nH]cc(F)c(=O)[nH]1 [5-fluorouracil] | 0.48 | 
CO/N=C(\C(=O)N[C@@H]1C(=O)N2C(C(=O)[O-])=C(C[n+]3ccn4ncccc43)CS[C@H]12)c1nsc(N)n1 [Cefozopran hydrochloride] | -0.43 | 
CS(=O)(=O)c1ccc([C@@H](O)[C@@H](CO)NC(=O)C(Cl)Cl)cc1 [Thiamphenicol] | 1.15 | 
CC(C)Cc1ccc([C@H](C)C(=O)O)cc1 [(S,+) Ibuprofen] | -0.64 | 
C[C@@H](c1ncncc1F)[C@](O)(Cn1cncn1)c1ccc(F)cc1F [Voriconazole] | -0.11 | 
O=C(O)Cc1ccccc1Nc1c(Cl)cccc1Cl [Diclofenac sodium] | 0.22 | 
CN1CCN(CCCN2c3ccccc3Sc3ccc(S(=O)(=O)N(C)C)cc32)CC1 [Thioproperazine dimesylate] | -0.06 | 
C#C[C@]1(O)CC[C@H]2[C@@H]3[C@H](C)CC4=C(CCC(=O)C4)[C@H]3CC[C@@]21C [Tibolone] | 0.57 | 
O=C(O)COc1nn(Cc2ccccc2)c2ccccc12 [Bendazac] | -0.71 | 
CC(=O)OCC(=O)[C@@]1(O)CC[C@H]2[C@@H]3CCC4=CC(=O)C=C[C@]4(C)[C@@]3(F)[C@@H](O)C[C@@]21C [Isoflupredone acetate] | -0.01 | 
COc1cc(C(=O)N2CCOCC2)cc(OC)c1OC [Trimetozine] | 0.36 | 
CN(C)CCCOc1nn(Cc2ccccc2)c2ccccc12 [Benzydamine hydrochloride] | -0.13 | 
Cc1cc2nc3ccc(N(C)C)cc3[s+]c2cc1N [Tolonium chloride] | 0.07 | 
Nc1ccc(S(=O)(=O)Nc2ccc(Cl)nn2)cc1 [Sulfachloropyridazine] | 0.61 | 
COc1cc2nc(N3CCN(C(=O)C4CCCO4)CC3)nc(N)c2cc1OC (stereo not given) [Terazosin hydrochloride] | -0.04 | 
C[N+]1(C)CCC(=C(c2ccccc2)c2ccccc2)CC1 [Diphemanil methylsulfate] | 0.24 | 
NS(=O)(=O)c1cc2c(cc1Cl)NCNS2(=O)=O [Hydrochlorothiazide] | 1.38 | 
CN(C)CCc1c[nH]c2ccc(C[C@H]3COC(=O)N3)cc12 [Zolmitriptan] | -1.19 | 
COc1ccc(-c2noc(CC(=O)O)c2-c2ccc(OC)cc2)cc1 [Mofezolac] | -1.02 | 
CN(C)CCC=C1c2ccccc2C=Cc2ccccc21 [Cyclobenzaprine hydrochloride] | -0.64 | 

In a second layout: entries from further up.
Cc1cc2nc3ccc(N(C)C)cc3[s+]c2cc1N [Tolonium chloride]
  eye size Z-score: 0.07
CN(C)CCC=C1c2ccccc2C=Cc2ccccc21 [Cyclobenzaprine hydrochloride]
  eye size Z-score: -0.64

Additional entries.

Structure (SMILES) | eye size Z-score | eye size Z-score (female)
O=c1[nH]c(=O)n([C@H]2C[C@H](O)[C@@H](CO)O2)cc1F [Floxuridine] | 0.52 | 
COc1cc(C)c(/C=C/C(C)=C/C=C/C(C)=C/C(=O)O)c(C)c1C [Acitretin] | 1.05 | 
CC(C)OC(=O)CCC/C=C\C[C@@H]1[C@@H](CC[C@@H](O)CCc2ccccc2)[C@H](O)C[C@@H]1O [Latanoprost] | -0.25 | 
CC(=O)Oc1cc(C(C)C)c(OCCN(C)C)cc1C [Moxisylyte hydrochoride] | 1.21 | 
CC(c1cc2ccccc2s1)N(O)C(N)=O (stereo not given) [Zileuton] | 0.5 | 
CCn1cc(C(=O)O)c(=O)c2cc(F)c(N3CCN(C)CC3)cc21 [Pefloxacin] | -0.24 | 
Cc1ccc(S(=O)(=O)NCl)cc1 [Chloramine-T hydrate] | -0.48 | 
COc1cc(N)cn[n+]1-c1ccccc1 [Amezinium metilsulfate] | -0.33 | 
C[C@@H]1CN(c2c(F)c(N)c3c(=O)c(C(=O)O)cn(C4CC4)c3c2F)C[C@H](C)N1 [Sparfloxacin] | -0.04 | 
C[C@]12C=CC(=O)C=C1CC[C@@H]1[C@@H]2C(=O)C[C@@]2(C)[C@H]1CC[C@]2(O)C(=O)CO [Prednisone] | 0.76 | 
NC(=O)c1cc[n+](CC2=C(C(=O)O)N3C(=O)[C@@H](NC(=O)C(c4ccccc4)S(=O)(=O)[O-])[C@H]3SC2)cc1 (stereo not given in full) [Cefsulodin Sodium Salt Hydrate] | -0.78 | 
CCn1cc(C(=O)O)c(=O)c2cc(F)c(N3CCNC(C)C3)c(F)c21 (stereo not given) [Lomefloxacin hydrochloride] | -0.22 | 
COc1cc(C)nc(-n2nc(C)cc2OC)n1 [Epirizole] | 0.32 | 
CS(=O)(=O)Nc1ccc([N+](=O)[O-])cc1Oc1ccccc1 [Nimesulide] | 0.64 | 
CNC(=C[N+](=O)[O-])NCCSCc1csc(CN(C)C)n1 [Nizatidine] | 0.11 | 
CC(C)CN(C[C@@H](O)[C@H](Cc1ccccc1)NC(=O)O[C@H]1CCOC1)S(=O)(=O)c1ccc(N)cc1 [Amprenavir] | 0.43 | 
CNCCC=C1c2ccccc2CCc2ccccc21 [Nortriptyline hydrochloride] | 1.55 | 
C[C@H]1[C@H](NC(=O)/C(=N\OC(C)(C)C(=O)O)c2csc(N)n2)C(=O)N1S(=O)(=O)O [Aztreonam] | -0.23 | 
CCc1c2c(nc3ccc(OC(=O)N4CCC(N5CCCCC5)CC4)cc13)-c1cc3c(c(=O)n1C2)COC(=O)[C@]3(O)CC [Irinotecan hydrochloride trihydrate] | -0.07 | 
Cc1ccc(/C(=C\CN2CCCC2)c2ccccn2)cc1 [Triprolidine hydrochloride] | 0.48 | 
CC(C)(O/N=C(\C(=O)N[C@@H]1C(=O)N2C(C(=O)[O-])=C(C[n+]3ccccc3)CS[C@H]12)c1csc(N)n1)C(=O)O [Ceftazidime pentahydrate] | 0.66 | 
Cc1c(Cl)cccc1Nc1ncccc1C(=O)O [Clonixin lysinate] | 0.28 | 
CN1CCN(C(c2ccccc2)c2ccc(Cl)cc2)CC1 (stereo not given) [Chlorcyclizine hydrochloride] | -0.48 | 
CCc1oc2ccccc2c1C(=O)c1cc(I)c(O)c(I)c1 [Benziodarone] | -0.09 | 
O=C(N/N=C/c1ccc([N+](=O)[O-])o1)c1ccc(O)cc1 [Nifuroxazide] | 0.73 | 

Reformatted with tabs: entries from further up
Structure (SMILES)	eye size Z-score	eye size Z-score (female)
O=C1C(CC[S+]([O-])c2ccccc2)C(=O)N(c2ccccc2)N1c1ccccc1 (stereo not given) [Sulfinpyrazone]	-0.55	
CC(=O)Oc1cc(C(F)(F)F)ccc1C(=O)O [Triflusal]	1.74	
N=c1ccn2c(n1)O[C@H]1[C@H](O)[C@@H](CO)O[C@H]12 [Ancitabine hydrochloride]	1.16	
C[C@]12C=CC(=O)C=C1CC[C@@H]1[C@@H]2[C@@H](O)C[C@@]2(C)[C@H]1CC[C@]2(O)C(=O)CO [Prednisolone]	-0.08	
CC(C)Cc1ccc([C@H](C)C(=O)O)cc1 [(S,+) Ibuprofen]	-0.64	
C[C@@H](c1ncncc1F)[C@](O)(Cn1cncn1)c1ccc(F)cc1F [Voriconazole]	-0.11	
O=C(O)Cc1ccccc1Nc1c(Cl)cccc1Cl [Diclofenac sodium]	0.22	
CN1CCN(CCCN2c3ccccc3Sc3ccc(S(=O)(=O)N(C)C)cc32)CC1 [Thioproperazine dimesylate]	-0.06	
C#C[C@]1(O)CC[C@H]2[C@@H]3[C@H](C)CC4=C(CCC(=O)C4)[C@H]3CC[C@@]21C [Tibolone]	0.57	
CN(C)CCCOc1nn(Cc2ccccc2)c2ccccc12 [Benzydamine hydrochloride]	-0.13	
Cc1cc2nc3ccc(N(C)C)cc3[s+]c2cc1N [Tolonium chloride]	0.07	
Nc1ccc(S(=O)(=O)Nc2ccc(Cl)nn2)cc1 [Sulfachloropyridazine]	0.61	
COc1ccc(-c2noc(CC(=O)O)c2-c2ccc(OC)cc2)cc1 [Mofezolac]	-1.02	
CC(C)OC(=O)CCC/C=C\C[C@@H]1[C@@H](CC[C@@H](O)CCc2ccccc2)[C@H](O)C[C@@H]1O [Latanoprost]	-0.25	
CC(=O)Oc1cc(C(C)C)c(OCCN(C)C)cc1C [Moxisylyte hydrochoride]	1.21	
CC(c1cc2ccccc2s1)N(O)C(N)=O (stereo not given) [Zileuton]	0.5	
Cc1ccc(S(=O)(=O)NCl)cc1 [Chloramine-T hydrate]	-0.48	
C[C@@H]1CN(c2c(F)c(N)c3c(=O)c(C(=O)O)cn(C4CC4)c3c2F)C[C@H](C)N1 [Sparfloxacin]	-0.04	
CCn1cc(C(=O)O)c(=O)c2cc(F)c(N3CCNC(C)C3)c(F)c21 (stereo not given) [Lomefloxacin hydrochloride]	-0.22	
CN1CCN(C(c2ccccc2)c2ccc(Cl)cc2)CC1 (stereo not given) [Chlorcyclizine hydrochloride]	-0.48	
O=C(N/N=C/c1ccc([N+](=O)[O-])o1)c1ccc(O)cc1 [Nifuroxazide]	0.73	

The list goes on:

Structure (SMILES) | eye size Z-score | eye size Z-score (female)
CC(C)(C)NCC(O)CSc1nc(-c2ccc(C(N)=O)s2)cs1 (stereo not given) [Arotinolol hydrochloride] | -0.16 | 
NC(=O)c1ncn([C@@H]2O[C@H](CO)[C@@H](O)[C@H]2O)c1O [Mizoribine] | 0.2 | 
CC(=O)Nc1c(I)c(NC(C)=O)c(I)c(C(=O)O)c1I [Diatrizoic acid dihydrate] | -0.15 | 
CCc1cc(C(N)=S)ccn1 [Ethionamide] | -0.28 | 
CN(N=O)C(=O)N[C@@H](C=O)[C@@H](O)[C@H](O)[C@H](O)CO [Streptozotocin] | -0.23 | 
CN1C2CCCC1CC(NC(=O)c1nn(C)c3ccccc13)C2 (stereo not given) [Granisetron] | 0.8 | 
CC(C)N1CCN(c2ccc(OCC3COC(Cn4cncn4)(c4ccc(Cl)cc4Cl)O3)cc2)CC1 (stereo not given) [Terconazole] | -0.09 | 
O=C(NCCNCC(O)COc1ccc(O)cc1)N1CCOCC1 (stereo not given) [Xamoterol hemifumarate] |  | 0.29
CCN(Cc1ccncc1)C(=O)C(CO)c1ccccc1 (stereo not given) [Tropicamide] | -0.03 | 
CN(C)CCOC1=Cc2ccccc2Sc2ccc(Cl)cc21 [Zotepine] | 0.43 | 
Cc1ncc([N+](=O)[O-])n1CCO [Metronidazole] | 0.01 | 
CCN(CC)CC#CCOC(=O)C(O)(c1ccccc1)C1CCCCC1 (stereo not given) [Oxybutynin chloride] | 0.04 | 
OC(CCN1CCCCC1)(c1ccccc1)C1CC2C=CC1C2 (stereo not given) [Biperiden hydrochloride] | -0.18 | 
COc1ccc(C(=O)NCc2cccnc2)cc1C(=O)NCc1cccnc1 [Picotamide monohydrate] | -0.21 | 
C=CC[C@@H]1/C=C(\C)C[C@H](C)C[C@H](OC)[C@H]2O[C@@](O)(C(=O)C(=O)N3CCCC[C@H]3C(=O)O[C@H](/C(C)=C/[C@@H]3CC[C@@H](O)[C@H](OC)C3)[C@H](C)[C@@H](O)CC1=O)[C@H](C)C[C@@H]2OC [Tacrolimus Monohydrate] | 0.43 | 
NC[C@H]1O[C@H](O[C@H]2[C@H](O[C@@H]3O[C@H](CO)[C@@H](O)[C@H]3O)[C@@H](O)[C@H](N)C[C@@H]2N)[C@H](N)[C@@H](O)[C@@H]1O [Ribostamycin sulfate salt] | 0.15 | 
Cc1ccc(C(=O)c2cc(O)c(O)c([N+](=O)[O-])c2)cc1 [Tolcapone] | -0.06 | 
COc1ccc2[nH]cc(CCNC(C)=O)c2c1 [Melatonin] | 2.38 | 
CCCCS(=O)(=O)N[C@@H](Cc1ccc(OCCCCC2CCNCC2)cc1)C(=O)O [Tirofiban hydrochloride] | -0.21 | 
COc1cc2nc(N3CCN(C(=O)c4ccco4)CC3)nc(N)c2cc1OC [Prazosin hydrochloride] | 0.36 | 
CCn1cc(C(=O)O)c(=O)c2cnc(N3CCNCC3)nc21 [Pipemidic acid] | 0.6 | 
COc1nc(C)nc(Cl)c1NC1=NCCN1 [Moxonidine] | -0.03 | 
CCC(C)C(C(=O)OCC[N+](C)(CC)CC)c1ccccc1 (stereo not given) [Valethamate bromide] |  | 0.33
Cc1ccc(S(=O)(=O)NC(=O)NN2CC3CCCC3C2)cc1 (stereo not given) [Gliclazide] | 0.48 | 
CC(=O)N[C@@H](CC(=O)N[C@@H](CCC(=O)O)C(=O)O)C(=O)O [Spaglumic acid] | 0.75 | 
